Literature values as cited in patent publication US20050118226A1, “Methods for treating ACAT-related diseases” (priority 2003, published 2005).
At least one structure is not confirmed: it was looked up by name or label, or the drawing left a doubt. Some entries share one result that the patent states for a list of compounds.

Tests used:
[1] = system: cell culture models of AD and primary neurons; settings: cited from earlier work; for inhibition of Aβ production: cell culture models of AD and primary neurons; for lowering of cholesteryl-ester production: cell-based studies
endogenous total Aβ = settings: guinea pigs, ~250 mg/kg/day orally, 3 weeks; cited from earlier work
AD patients = settings: first small prospective trial; cited from earlier work

| Structure (SMILES) | inhibition of Aβ production [1] | lowering of cholesteryl-ester production [1] | reduction of endogenous detergent-extracted total Aβ (endogenous total Aβ) [%] | cognition in AD patients (AD patients) |
| --- | --- | --- | --- | --- |
| CCCCCCCC[C@H](SCCCCCC)C(=O)Nc1c(SC)cc(C)nc1SC [CP-113,818] | up to 50% | up to 45% |  |  |
| CCCCCCCN(CCCCCSc1nc(-c2ccccc2)c(-c2ccccc2)[nH]1)C(=O)Nc1ccc(F)cc1F [Dup128, N′-(2,4-difluorophenyl)-N-[5-(4,5-diphenyl-1H-imidazol-2-ylthio)pentyl]-N-heptylurea] | up to 50% | up to 45% |  |  |
| CCC(C)(C)C(=O)O[C@H]1C[C@@H](C)C=C2C=C[C@H](C)[C@H](CC[C@@H]3C[C@@H](O)CC(=O)O3)[C@H]21 [simvastatin] |  |  | ~45 | improved slightly |
